{"source": "patent US20140017242A1", "about": "“ANTI-BRADYKININ B2 RECEPTOR (BKB2R) MONOCLONAL ANTIBODY” (Diamedica, Inc., priority 2010, published 2014)", "molecules": {"B1": {"name": "5F12G1: murine monoclonal anti-BKB2R antibody (IgG2b,κ), VH comprising SEQ ID NO:1, VL comprising SEQ ID NO:2 (antibody, listed as Mus musculus, V domains shown)", "VH": "EVKLEESGGGLVQPGGSMKLSCVVSGFTFSDYWMSWVRHSPEMGLEWVAEIRLKSDNYATHYAESVKGRFTISRDDSKSRLYLQINSLRGEDTGIYYCTRDYYAMEYWGQGTSVTVSS", "VL": "DVVMTQTPLSLPVSLGDQASISCRSSQTIVHSNGKTYLEWYLQKPGQSPKLLIYKVSNRFSGVPDRFSGSGSGTEFTLKISRVETEDLGVYYCFQASHVPYTFGGGTKLEIK"}}, "tested_on": "ZDF fa/fa rats", "test": "21-day ZDF fa/fa study: body weight, food and water intake", "type": "in vivo, rat", "data": [{"molecule": "N[C@@H](CC(=O)N1CCn2c(nnc2C(F)(F)F)C1)Cc1cc(F)c(F)cc1F", "note": "[sitagliptin, reference compound]", "values": [{"measurement": "water consumption", "setting": "10 mg/kg p.o. 1×/daily", "result": "48+/−7 ml/rat/day"}, {"measurement": "food consumption", "setting": "10 mg/kg p.o. 1×/daily, day 21", "result": "31+/−2 g/rat/day"}, {"measurement": "percent increase in body weight", "setting": "10 mg/kg p.o. 1×/daily, day 21", "result": "10+/−2%"}]}, {"molecule": "B1", "values": [{"measurement": "food consumption", "setting": "0.008 mg/kg s.c. every 3 days, day 21", "result": "30+/−0.5 g/rat/day"}, {"measurement": "water consumption", "setting": "0.04 mg/kg s.c. every 3 days", "result": "40+/−10 ml/rat/day"}, {"measurement": "food consumption", "setting": "0.04 mg/kg s.c. every 3 days, day 21", "result": "27+/−2 g/rat/day"}, {"measurement": "water consumption", "setting": "0.2 mg/kg s.c. every 3 days", "result": "26+/−3 ml/rat/day"}, {"measurement": "food consumption", "setting": "0.2 mg/kg s.c. every 3 days, day 21", "result": "28+/−1 g/rat/day"}, {"measurement": "percent increase in body weight", "setting": "all dosage groups (0.2, 0.04, 0.008 mg/kg s.c. every 3 days), by day 21", "result": "~13+/−1%"}, {"measurement": "water consumption", "setting": "third dosage group, dose not printed at the value (0.008 mg/kg)", "result": "28+/−4 ml/rat/day"}]}]}
